No constants are given. Whether binding was seen depends on the method and setting. In cells and extracts the contact can be indirect. Some binding calls cover weakened binding; strength is not graded here. Sequences can lack the tags named with a protein.

Amino acid sequences for entries named in this document (tags omitted).
UniProt Q86TM6: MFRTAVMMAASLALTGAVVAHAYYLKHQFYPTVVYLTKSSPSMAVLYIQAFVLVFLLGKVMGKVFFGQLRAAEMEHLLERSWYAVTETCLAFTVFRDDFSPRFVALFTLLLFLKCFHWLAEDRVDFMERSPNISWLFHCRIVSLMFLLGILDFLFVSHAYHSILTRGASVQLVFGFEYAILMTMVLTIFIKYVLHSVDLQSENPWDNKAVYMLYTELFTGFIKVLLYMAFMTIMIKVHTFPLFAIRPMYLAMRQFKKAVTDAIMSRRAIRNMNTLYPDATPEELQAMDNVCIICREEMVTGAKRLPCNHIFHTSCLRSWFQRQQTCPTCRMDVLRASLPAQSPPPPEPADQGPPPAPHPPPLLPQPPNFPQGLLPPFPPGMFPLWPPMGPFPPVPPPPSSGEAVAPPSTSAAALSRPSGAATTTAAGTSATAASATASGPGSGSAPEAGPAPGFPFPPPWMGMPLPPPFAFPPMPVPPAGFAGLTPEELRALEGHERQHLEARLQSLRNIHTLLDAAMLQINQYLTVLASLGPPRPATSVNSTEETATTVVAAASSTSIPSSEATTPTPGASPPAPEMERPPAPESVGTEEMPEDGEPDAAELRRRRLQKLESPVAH

The target of the assay is T1, Flag-tagged heat shock protein A12A (HSPA12A) (UniProt O43301).
T1 sequence: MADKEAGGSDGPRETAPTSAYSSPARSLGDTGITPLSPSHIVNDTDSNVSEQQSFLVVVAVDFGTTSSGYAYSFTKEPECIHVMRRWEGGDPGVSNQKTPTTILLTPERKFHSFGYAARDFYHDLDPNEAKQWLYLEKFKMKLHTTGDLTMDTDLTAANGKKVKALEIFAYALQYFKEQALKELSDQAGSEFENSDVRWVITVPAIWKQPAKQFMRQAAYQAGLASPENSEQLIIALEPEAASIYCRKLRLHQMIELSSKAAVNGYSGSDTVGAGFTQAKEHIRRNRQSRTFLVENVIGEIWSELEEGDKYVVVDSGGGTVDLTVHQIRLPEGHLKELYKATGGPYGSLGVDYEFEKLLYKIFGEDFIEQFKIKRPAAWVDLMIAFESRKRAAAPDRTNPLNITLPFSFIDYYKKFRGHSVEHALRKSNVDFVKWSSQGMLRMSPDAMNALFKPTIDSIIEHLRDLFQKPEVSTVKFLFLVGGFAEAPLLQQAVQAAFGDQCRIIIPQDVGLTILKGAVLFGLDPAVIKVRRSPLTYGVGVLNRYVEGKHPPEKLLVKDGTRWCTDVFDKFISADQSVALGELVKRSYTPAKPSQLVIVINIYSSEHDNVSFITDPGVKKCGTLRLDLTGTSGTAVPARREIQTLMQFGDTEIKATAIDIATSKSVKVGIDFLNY
Kind of assay: co-IP; Caki-1 or 786O cells overexpressing Flag-tagged HSPA12A for 48 h; 0.7 mg protein precipitated with anti-Flag antibodies; blots with anti-CD147, anti-HRD1 and anti-HSPA12A; IgG precipitates as negative controls.

As to “HMG-CoA reductase degradation protein 1 (HRD1) (from UniProt Q86TM6 1-617) (enzyme)”, the binding entry is “binds”.
